Assay results reported in patent US20040197932A1, “Bio-vehicle, biosensor and biotransducer system” (priority 2003, published 2004).
At least one compound was matched to its structure with a doubt left.

Test system: major urinary protein (MUP)
Assay: QCM ligand-binding test: shift of resonant frequency on binding of evaporated ligand to immobilized MUP
Set-up: species or system mouse
Conditions: MUP immobilized on 10 MHz AT-cut QCM chip; odorant sample evaporated at 50° C. and pumped into detection chamber
Method: The preferred electronic nose technology of the present invention is piezoelectric-based. Measurements are performed by detecting the binding of analytes (ligands) onto the sensing elements immobilized on piezoelectric materials, e.g., quartz crystal. The adsorption of ligand induces a shift in the oscillation frequency proportional to the mass of the encountered ligand. The operating performance of the present invention is described as bellow:
Gold electrodes of quartz crystal microbalance (QCM) surface are cleaned by immersing in 1.2 N NaOH and then in 1.2 N HCl. After rinsing and drying, the QCM electrodes are soaked in 1 mM 2-aminoethanethiol/DMSO solution for 12 hours and washed by double distilled water for 10 min. Then the QCM electrodes are dried in oven and dripped with 4 μl of 2.5% glutaldehyde for 1 hour. Two μl of 1% polyethylenimine/methanol (PEI/MeOH) solution are added onto activated surface of QCM in a closed chamber at room temperature for 12 hours. Finally, the QCM chips are washed two times and dried in oven. […]
A sample is respectively applied in a syringe and kept in an oven at 50° C. […] The evaporated odorant sample is pumped into the detection chamber of QCM and the shift of resonant frequency is recorded. […]

## O=C(O)Cc1ccccc1 [phenylacetate]
  Change of Signal (in frequency f): 46
